Experiment in all cases: cell viability relative to untreated (fraction); higher = less growth inhibition
What all share (settings): 5 µM; 3 days

Assay [1] concerns MEPP (mouse ovarian epithelium Trp53/Pten KO).
Assay [2] relates to PREPP (mouse prostate epithelium Trp53/Pten KO).
Assay [3] has as its system MEPP (mouse ovarian epithelium Trp53/Pten KO). The source holds these as a separate data set.
The subject of assay [4] is PREPP (mouse prostate epithelium Trp53/Pten KO). This is another data set of the same source.

Values joined by “and” are separate entries in the source; they are usually repeats but may differ in a detail not shown here. Equal entries are not always repeated. The list shows a part of the results. Many values rest on one well or one pass, so single values are uncertain.

On to `N#CCNC(=O)c1ccc(-c2ccnc(Nc3ccc(N4CCOCC4)cc3)n2)cc1`, for which the values for the cell viability in assay [1] and in assay [2] were 0.59 and 0.546, respectively.
The matching figures for `Cc1ccc(NC(=O)CCCCCC(=O)Nc2ccccc2N)cc1`: 1.01 and 0.856.
The matching figures for `Cn1ncnc1[C@@H]1c2n[nH]c(=O)c3cc(F)cc(c23)N[C@H]1c1ccc(F)cc1`: 1.16 and 0.835.
The matching figures for `CO[C@@H](C(=O)N1Cc2[nH]nc(NC(=O)c3ccc(N4CCN(C)CC4)cc3)c2C1)c1ccccc1`: 0.798 and 0.796.
Take `COC(=O)C1=CO[C@@H](O[C@@H]2O[C@H](CO)[C@@H](O)[C@H](O)[C@H]2O)[C@@H]2[C@H](C)O[C@@H](O)C[C@H]12`: the cell viability in assay [3] was 1.12; in assay [4] it was 1.06.
For the compound `Nc1ncn([C@H]2C[C@H](O)[C@@H](CO)O2)c(=O)n1`, the cell viability in assay [1] turned out to be 0.832; in assay [2], 0.906; in assay [3] it was 1.06; in assay [4], 0.966.
The matching figures for `C[C@@H]1O[C@@H](Oc2c(-c3cc(O)c(O)c(O)c3)oc3cc(O)cc(O)c3c2=O)[C@H](O)[C@H](O)[C@H]1O`: 1.03, 0.937, 1.67 and 0.873.
In the case of `O=c1c(O)c(-c2ccc(O)c(O)c2)oc2cc(O)cc(O)c12`, the cell viability in assay [1] is 1.07; in assay [2], 0.878; in assay [3], 1.06 and 1.07; in assay [4], 1.45 and 0.888.

For the origin of these results see the supplement of paper PMC12873370.
